Source: patent US7897640B2 (priority 2003, dated 2011)
Some results were stated once for a whole list of compounds, not compound by compound.

Tests used:
Assay type in all cases: cell-based
bacillus prodigiosus = assay: MIC sensitivity test, bacillus prodigiosus; details: most isolates of bacillus prodigiosus
[1] = system: bacteroid, especially bacteroides fragilis; assay: MIC sensitivity test, bacteroides fragilis
Helicobacter pylori = assay: MIC sensitivity test, Helicobacter pylori
stenotrophomonas bacilli = assay: MIC sensitivity test, stenotrophomonas bacilli
pneumobacillus = assay: MIC sensitivity test, pneumobacillus
[2] = system: Gram-positive staphylococcus aureus; assay: MIC sensitivity test, staphylococcus aureus
[3] = most bacterial strains of stenotrophomonas bacilli
[4] = stenotrophomonas bacilli, especially effective, compared with berberine

SMILES	MIC (bacillus prodigiosus)	MIC [1]	MIC (Helicobacter pylori)	MIC (stenotrophomonas bacilli; [3])	MIC (stenotrophomonas bacilli; [4])	MIC (pneumobacillus; pneumobacillus)	MIC [2]	MIC (pneumobacillus; some bacterial strains)
CC(=O)O[C@H](CC=C(C)C)C1=CC(=O)c2c(O)ccc(O)c2C1=O [acetylshikonin]	0.391 to 3.125 µg/mL	0.391 to 6.25 µg/mL	0.391 to 0.781 µg/mL	0.391 to 3.125 µg/mL	0.391 to 0.781 µg/mL	0.391 to 6.25 µg/mL	–	–
CC(C)=CCC(OC(=O)C=C(C)C)C1=CC(=O)c2c(O)ccc(O)c2C1=O (stereo not drawn) [β,β-dimethylacrylshikonin]	0.391 to 3.125 µg/mL	0.391 to 6.25 µg/mL	0.391 to 0.781 µg/mL	0.391 to 3.125 µg/mL	0.391 to 0.781 µg/mL	0.391 to 6.25 µg/mL	0.391 to 12.5 µg/mL	12.5 to 50 µg/mL
